Results taken from patent publication US7026134B2 (priority 2001, dated 2006).

Assays:
[1] = system: IgG fraction of the antiserum raised to immunogen A (hapten A-BSA); type: binding, sheep
Protocol: Aqueous solutions of the immunogens prepared in Examples 7 and 8 were formulated with Freund's Complete Adjuvant (FCA) to form emulsions consisting of 4 mg/ml immunogen A and 2 mg/ml immunogen B in 50% (v/v) FCA. Three sheep were immunized with each emulsion (1° immunizations), 0.25 ml being subcutaneously injected at each of four sites in the flank of each animal. The next immunizations (first boosts) contained 2 mg/ml immunogen A and 1 mg/ml immunogen B. Subsequent immunizations (boosts […]) contained 1 mg/ml of each immunogen. All boosts were emulsified in 50% (v/v) Freund's Incomplete Adjuvant (FIA) and administered to the appropriate sheep in the same manner as the 1° immunizations, at monthly intervals for 1 year. Blood sampling took place 7 to 14 days after each boost. […] The IgG fraction was evaluated by competitive ELISA microtiter plate assay, as described in Example 12 below.
(a) The wells of an enhanced binding 96-well polystyrene microtiter plate were coated with the IgG fraction of the antiserum raised to immunogen A (hapten A-BSA) (Example 7), diluted in 10 mM Tris, pH8.5 (125 μl/well). The appropriate antibody coating dilution was determined using standard ELISA chequerboard techniques. […] The appropriate dilution of conjugate was also determined using standard ELISA chequerboard techniques. […] The absorbance was then measured at 450 nm using a microtiter plate reader.

[2] = system: IgG fraction of the antiserum raised to immunogen B (hapten B-BSA); type: binding, sheep

For `CN1CC[C@]23c4c5ccc(O)c4O[C@H]2[C@@H](O)C=C[C@H]3[C@H]1C5` [Morphine], the “IC50, OP” value [1] was greater than 0.5 µg/mL and the “IC50, OP” value [2] was greater than 2 µg/mL.
